PubChem BioAssay AID1224830 – NIAID – 2016

Screen: 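Regulators of TLR4 signalling towards TNF-alpha in macrophage-like cells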 (primary screen)
Cells: human THP-1 monocytic leukaemia cells, TNF dual-luciferase reporter clone, PMA-differentiated to macrophage-like cells
Reagent: siRNA pool against human genes, 50 nM
Timing: LPS for 4 h, given about 3 days after siRNA transfection
Conditions: bacterial LPS (TLR4 ligand), 10 ng/ml
Detection: 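TNF firefly reporter luminescence divided by renilla, normalised to the plate median, then turned into a robust z-score for each replicate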
Direction: TNF reporter robust z-score: higher = stronger TNF reporter response to LPS
Active means: 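a well is active when its z-score exceeds 2.8 or falls below -1.5; control wells carry no call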
The whole screen tested about 18,000 reagents; shown is a part drawn at random. Of all reagents, about 2,900 (16%) were called active. 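Calls are made per well; low scores hint the gene aids the LPS response, high scores that it dampens it.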 Unmarked entries are inactive. Repeated entries: four replicate wells of each siRNA pool. Reagent sequences are not shown.

PLA2G2D — TNF reporter robust z-score: -1.16
PLA2G2D — TNF reporter robust z-score: -0.59
PLA2G2D — TNF reporter robust z-score: -1.39
PLA2G2D — TNF reporter robust z-score: -1.28
SPATA25 — TNF reporter robust z-score: -0.28
SPATA25 — TNF reporter robust z-score: -0.41
SPATA25 — TNF reporter robust z-score: -1.07
SPATA25 — TNF reporter robust z-score: -0.76
KCNJ9 — TNF reporter robust z-score: -0.94
KCNJ9 — TNF reporter robust z-score: -0.04
KCNJ9 — TNF reporter robust z-score: -0.24
KCNJ9 — TNF reporter robust z-score: 0.36
BMERB1 — TNF reporter robust z-score: -1.36
BMERB1 — TNF reporter robust z-score: -0.55
BMERB1 — TNF reporter robust z-score: -1.02
BMERB1 — TNF reporter robust z-score: -0.16

Records above whose target name begins with P or p:
PLA2G2D — TNF reporter robust z-score: -1.16
PLA2G2D — TNF reporter robust z-score: -0.59
PLA2G2D — TNF reporter robust z-score: -1.39
PLA2G2D — TNF reporter robust z-score: -1.28

Next results follow.
SON — TNF reporter robust z-score: -1.33
SON — TNF reporter robust z-score: -1.17
SON — TNF reporter robust z-score: -1.3
SON — TNF reporter robust z-score: -0.98
MAGEA10 — TNF reporter robust z-score: 0.31
MAGEA10 — TNF reporter robust z-score: -0.29
MAGEA10 — TNF reporter robust z-score: -0.08
MAGEA10 — TNF reporter robust z-score: 0.18
AIRIM — TNF reporter robust z-score: -0.23
AIRIM — TNF reporter robust z-score: 1.07
AIRIM — TNF reporter robust z-score: 0.88
AIRIM — TNF reporter robust z-score: 1.67
PDE4B — TNF reporter robust z-score: 1.55
PDE4B — TNF reporter robust z-score: 0.97
PDE4B — TNF reporter robust z-score: 1.13
PDE4B — TNF reporter robust z-score: 2.03
